In paper PMC11648352:
Results are given in words; binding and its absence hold for the method and conditions named. For part of these data: In cells and extracts the contact can be indirect. Some entries that bind do so weakly or less than the wild type.

Chains of the proteins cited; added tags and fusions are not shown.
UniProt P17844: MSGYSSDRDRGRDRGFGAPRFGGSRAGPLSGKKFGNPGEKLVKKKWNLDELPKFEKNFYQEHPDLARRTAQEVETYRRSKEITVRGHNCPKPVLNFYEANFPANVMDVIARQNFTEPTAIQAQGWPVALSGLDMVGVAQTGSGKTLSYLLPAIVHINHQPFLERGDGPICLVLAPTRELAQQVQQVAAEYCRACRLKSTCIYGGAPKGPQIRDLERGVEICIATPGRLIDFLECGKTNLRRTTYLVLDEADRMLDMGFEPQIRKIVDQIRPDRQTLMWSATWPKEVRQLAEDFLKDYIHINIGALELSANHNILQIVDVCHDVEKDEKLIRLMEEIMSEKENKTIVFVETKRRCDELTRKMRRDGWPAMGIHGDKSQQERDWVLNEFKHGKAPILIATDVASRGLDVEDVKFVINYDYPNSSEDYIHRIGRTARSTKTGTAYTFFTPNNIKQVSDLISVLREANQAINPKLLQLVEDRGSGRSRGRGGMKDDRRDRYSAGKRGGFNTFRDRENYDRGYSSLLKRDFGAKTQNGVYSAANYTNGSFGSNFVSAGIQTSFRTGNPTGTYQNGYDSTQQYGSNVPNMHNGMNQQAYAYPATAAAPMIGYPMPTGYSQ
UniProt Q16666: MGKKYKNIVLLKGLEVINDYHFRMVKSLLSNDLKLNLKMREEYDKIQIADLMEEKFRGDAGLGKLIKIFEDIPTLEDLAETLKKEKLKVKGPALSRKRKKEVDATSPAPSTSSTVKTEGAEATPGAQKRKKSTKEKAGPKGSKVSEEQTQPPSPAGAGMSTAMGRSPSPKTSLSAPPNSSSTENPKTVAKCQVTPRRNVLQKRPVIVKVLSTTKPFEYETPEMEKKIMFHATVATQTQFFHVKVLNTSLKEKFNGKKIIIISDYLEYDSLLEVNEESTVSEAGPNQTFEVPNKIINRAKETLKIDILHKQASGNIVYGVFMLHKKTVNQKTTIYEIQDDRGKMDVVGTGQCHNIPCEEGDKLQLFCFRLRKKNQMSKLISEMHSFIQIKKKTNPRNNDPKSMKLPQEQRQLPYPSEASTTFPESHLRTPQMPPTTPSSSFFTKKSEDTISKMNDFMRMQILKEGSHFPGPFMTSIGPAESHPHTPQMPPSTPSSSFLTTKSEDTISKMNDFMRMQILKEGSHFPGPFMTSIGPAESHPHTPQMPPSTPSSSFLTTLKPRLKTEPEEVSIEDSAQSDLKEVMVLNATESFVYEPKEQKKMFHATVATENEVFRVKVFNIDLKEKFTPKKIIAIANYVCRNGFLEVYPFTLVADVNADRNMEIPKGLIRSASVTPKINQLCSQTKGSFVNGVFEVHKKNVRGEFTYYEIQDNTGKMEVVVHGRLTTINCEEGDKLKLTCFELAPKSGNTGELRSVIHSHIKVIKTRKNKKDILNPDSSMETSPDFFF
UniProt Q15022: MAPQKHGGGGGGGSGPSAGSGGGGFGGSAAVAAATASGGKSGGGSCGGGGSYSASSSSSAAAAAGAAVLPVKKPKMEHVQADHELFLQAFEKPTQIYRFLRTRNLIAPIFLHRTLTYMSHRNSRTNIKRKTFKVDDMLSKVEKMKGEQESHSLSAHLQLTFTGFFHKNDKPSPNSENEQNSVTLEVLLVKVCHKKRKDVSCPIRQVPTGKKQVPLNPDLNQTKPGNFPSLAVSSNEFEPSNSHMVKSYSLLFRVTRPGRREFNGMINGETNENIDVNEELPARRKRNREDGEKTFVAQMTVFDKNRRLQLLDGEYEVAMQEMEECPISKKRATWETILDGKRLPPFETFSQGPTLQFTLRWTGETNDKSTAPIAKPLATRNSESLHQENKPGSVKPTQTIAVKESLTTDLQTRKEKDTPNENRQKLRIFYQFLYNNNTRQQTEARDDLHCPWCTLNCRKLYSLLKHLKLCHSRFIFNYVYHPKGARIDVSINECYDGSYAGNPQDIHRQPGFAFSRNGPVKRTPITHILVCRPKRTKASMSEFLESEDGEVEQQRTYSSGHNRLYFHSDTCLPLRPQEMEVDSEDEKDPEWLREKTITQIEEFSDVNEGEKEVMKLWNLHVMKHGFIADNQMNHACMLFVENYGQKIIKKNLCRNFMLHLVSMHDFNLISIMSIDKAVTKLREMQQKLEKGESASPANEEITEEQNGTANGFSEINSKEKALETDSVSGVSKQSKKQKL
UniProt Q09028: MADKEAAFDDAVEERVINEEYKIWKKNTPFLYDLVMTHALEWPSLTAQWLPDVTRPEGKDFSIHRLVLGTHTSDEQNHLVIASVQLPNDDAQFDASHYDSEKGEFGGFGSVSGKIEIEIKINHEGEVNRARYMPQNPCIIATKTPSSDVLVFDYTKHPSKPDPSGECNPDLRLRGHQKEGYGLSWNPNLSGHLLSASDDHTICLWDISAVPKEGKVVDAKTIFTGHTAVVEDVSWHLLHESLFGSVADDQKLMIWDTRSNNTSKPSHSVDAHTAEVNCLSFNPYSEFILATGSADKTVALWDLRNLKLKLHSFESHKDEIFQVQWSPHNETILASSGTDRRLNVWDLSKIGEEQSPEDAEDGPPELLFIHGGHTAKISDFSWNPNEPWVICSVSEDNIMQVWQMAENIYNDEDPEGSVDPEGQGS

Tests used:
[1] = target: endogenous DDX5 (human (endogenous in HepaRG)) (UniProt P17844); assay: co-IP; HepaRG native whole-cell lysates immunoprecipitated with DDX5 Ab or IgG, immunoblots (endogenous proteins)
[2] = target: FLAG-DDX5 (RNA helicase DEAD box protein 5, wild type) (UniProt P17844); assay: co-IP; whole-cell extract of Dox-inducible FLAG-DDX5 HepaRG cells grown with or without doxycycline (1.0 µg/mL, 48 h), immunoprecipitated with FLAG Ab or IgG, immunoblots
[3] = target: FLAG-DDX5 (RNA helicase DEAD box protein 5, wild type) (UniProt P17844); assay: co-IP + native gel or EMSA; native nuclear lysates of Dox-inducible FLAG-DDX5 HepaRG cells (1.0 µg/mL Dox and 500 ng/mL IFN-α, 48 h) immunoprecipitated with anti-DDX5 overnight at 4°C, eluted with 0.2 M glycine pH 2.6, NativePAGE 3-12% Bis-Tris, immunoblots
[4] = target: FLAG-DDX5 (RNA helicase DEAD box protein 5, wild type) (UniProt P17844); assay: SEC; native nuclear lysates of Dox-inducible FLAG-DDX5 HepaRG cells fractionated on Superdex 200 Increase; fractions (750 kDa to below 360 kDa) analysed by immunoblot and LC-MS/MS; also lysates treated with benzonase (125 U/mg, 45 min on ice) or RNase A (10 µg/mg, 30 min, room temperature) before SEC

Measured: binding

interferon-inducible protein 16 (IFI16) (from UniProt Q16666 1-785)
binds: all assays above

SUZ12, core PRC2 subunit (from UniProt Q15022 1-739)
binds: all assays above

RBBP4, auxiliary PRC2 subunit (from UniProt Q09028 1-425)
binds: all assays above
